The list shows a part of the results.
Compound: COc1ccc(Cn2ccc3ccc(C(=O)NO)cc32)cc1
Test: dose-dependent thermal stabilisation call (2D-TPP, DLPTP, 10% FDR) (binary (1 = stabilised)); higher = stabilised by the compound
Conditions: system: HL-60 intact cells; concentration range 0.04-10 µM

By UniProt entry, the sequences of proteins in these tests, tags left out. Where a name states a change or a piece, a line headed by the entry shows the natural chain unless it says otherwise.
UniProt Q9H2K0, whole entry: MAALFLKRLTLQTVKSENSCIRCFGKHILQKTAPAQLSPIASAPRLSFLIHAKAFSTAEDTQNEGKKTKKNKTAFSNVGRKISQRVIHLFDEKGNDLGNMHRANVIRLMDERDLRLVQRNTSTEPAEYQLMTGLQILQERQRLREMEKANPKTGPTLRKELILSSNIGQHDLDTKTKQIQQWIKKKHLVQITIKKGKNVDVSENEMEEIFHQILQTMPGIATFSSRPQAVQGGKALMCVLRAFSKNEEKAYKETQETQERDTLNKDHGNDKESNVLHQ
UniProt P03886, whole entry: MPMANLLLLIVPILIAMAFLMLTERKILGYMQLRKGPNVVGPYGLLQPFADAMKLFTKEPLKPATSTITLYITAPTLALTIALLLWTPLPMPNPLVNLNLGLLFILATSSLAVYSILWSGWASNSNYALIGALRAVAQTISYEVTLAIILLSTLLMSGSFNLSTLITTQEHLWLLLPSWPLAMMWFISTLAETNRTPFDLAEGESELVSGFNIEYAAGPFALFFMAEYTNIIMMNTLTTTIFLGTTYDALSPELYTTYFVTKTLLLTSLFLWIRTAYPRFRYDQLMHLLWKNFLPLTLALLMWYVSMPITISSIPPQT
UniProt Q96QG7: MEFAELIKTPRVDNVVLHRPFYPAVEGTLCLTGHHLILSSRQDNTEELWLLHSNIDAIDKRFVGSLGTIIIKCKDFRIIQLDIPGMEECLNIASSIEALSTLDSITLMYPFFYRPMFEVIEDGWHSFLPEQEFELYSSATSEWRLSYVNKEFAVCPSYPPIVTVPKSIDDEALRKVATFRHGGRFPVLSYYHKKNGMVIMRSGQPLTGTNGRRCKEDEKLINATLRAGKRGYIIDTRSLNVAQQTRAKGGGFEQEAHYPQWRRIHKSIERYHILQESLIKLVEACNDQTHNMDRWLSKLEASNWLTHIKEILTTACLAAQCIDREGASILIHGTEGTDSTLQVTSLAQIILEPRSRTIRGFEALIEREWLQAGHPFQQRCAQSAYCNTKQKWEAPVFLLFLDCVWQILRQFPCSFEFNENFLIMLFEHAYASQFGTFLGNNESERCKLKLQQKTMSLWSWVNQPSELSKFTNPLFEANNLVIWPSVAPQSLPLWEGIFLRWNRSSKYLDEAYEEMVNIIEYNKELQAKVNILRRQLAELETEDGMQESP
UniProt Q99707: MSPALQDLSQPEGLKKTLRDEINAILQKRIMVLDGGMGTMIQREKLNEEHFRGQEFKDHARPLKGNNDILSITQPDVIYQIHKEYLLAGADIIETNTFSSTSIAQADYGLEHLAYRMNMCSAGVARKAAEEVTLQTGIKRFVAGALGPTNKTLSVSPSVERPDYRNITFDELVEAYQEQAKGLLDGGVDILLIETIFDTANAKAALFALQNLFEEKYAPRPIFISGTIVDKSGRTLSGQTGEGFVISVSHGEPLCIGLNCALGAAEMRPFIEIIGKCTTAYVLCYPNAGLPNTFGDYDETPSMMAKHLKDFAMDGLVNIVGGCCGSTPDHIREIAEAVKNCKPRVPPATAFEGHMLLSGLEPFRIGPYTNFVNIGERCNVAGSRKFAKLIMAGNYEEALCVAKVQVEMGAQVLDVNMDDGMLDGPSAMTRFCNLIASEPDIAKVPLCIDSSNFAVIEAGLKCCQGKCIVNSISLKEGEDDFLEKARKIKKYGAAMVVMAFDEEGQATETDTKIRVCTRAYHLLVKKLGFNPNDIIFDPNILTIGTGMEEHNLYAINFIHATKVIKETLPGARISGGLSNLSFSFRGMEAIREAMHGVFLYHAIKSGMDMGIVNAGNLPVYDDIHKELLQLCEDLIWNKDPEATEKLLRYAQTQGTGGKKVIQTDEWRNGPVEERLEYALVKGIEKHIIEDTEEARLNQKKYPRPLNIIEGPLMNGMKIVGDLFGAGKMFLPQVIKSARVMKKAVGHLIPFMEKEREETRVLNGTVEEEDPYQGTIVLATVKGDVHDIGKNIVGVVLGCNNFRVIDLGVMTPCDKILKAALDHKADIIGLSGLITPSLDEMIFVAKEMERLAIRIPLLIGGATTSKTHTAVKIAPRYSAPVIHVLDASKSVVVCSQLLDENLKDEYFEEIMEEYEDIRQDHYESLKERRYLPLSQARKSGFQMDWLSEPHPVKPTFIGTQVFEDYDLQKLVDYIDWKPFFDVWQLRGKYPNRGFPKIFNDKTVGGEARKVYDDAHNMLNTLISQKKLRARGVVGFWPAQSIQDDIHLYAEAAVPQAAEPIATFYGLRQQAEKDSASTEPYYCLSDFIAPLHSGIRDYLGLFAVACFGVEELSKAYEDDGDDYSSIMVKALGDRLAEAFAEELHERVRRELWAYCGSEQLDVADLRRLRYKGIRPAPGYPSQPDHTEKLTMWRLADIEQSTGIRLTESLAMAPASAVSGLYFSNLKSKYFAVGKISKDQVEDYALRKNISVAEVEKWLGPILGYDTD
UniProt Q9H7Z6: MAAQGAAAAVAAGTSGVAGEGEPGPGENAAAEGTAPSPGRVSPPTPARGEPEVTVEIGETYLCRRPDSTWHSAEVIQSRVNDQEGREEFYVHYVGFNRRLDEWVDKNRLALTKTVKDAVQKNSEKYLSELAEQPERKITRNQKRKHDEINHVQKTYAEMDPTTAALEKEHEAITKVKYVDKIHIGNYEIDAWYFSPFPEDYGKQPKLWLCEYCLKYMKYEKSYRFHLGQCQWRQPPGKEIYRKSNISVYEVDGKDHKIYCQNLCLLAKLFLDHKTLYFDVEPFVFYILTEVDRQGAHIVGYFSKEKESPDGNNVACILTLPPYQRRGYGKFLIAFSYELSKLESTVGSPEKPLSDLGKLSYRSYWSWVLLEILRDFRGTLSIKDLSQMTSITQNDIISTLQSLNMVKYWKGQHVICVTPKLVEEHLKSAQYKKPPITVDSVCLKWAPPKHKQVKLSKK
UniProt O00217, whole entry: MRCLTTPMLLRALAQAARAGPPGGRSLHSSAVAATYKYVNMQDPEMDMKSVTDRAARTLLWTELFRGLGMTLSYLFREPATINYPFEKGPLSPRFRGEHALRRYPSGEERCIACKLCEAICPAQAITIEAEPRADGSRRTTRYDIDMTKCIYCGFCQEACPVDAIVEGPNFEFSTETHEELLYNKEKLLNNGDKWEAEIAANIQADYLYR
UniProt P46934: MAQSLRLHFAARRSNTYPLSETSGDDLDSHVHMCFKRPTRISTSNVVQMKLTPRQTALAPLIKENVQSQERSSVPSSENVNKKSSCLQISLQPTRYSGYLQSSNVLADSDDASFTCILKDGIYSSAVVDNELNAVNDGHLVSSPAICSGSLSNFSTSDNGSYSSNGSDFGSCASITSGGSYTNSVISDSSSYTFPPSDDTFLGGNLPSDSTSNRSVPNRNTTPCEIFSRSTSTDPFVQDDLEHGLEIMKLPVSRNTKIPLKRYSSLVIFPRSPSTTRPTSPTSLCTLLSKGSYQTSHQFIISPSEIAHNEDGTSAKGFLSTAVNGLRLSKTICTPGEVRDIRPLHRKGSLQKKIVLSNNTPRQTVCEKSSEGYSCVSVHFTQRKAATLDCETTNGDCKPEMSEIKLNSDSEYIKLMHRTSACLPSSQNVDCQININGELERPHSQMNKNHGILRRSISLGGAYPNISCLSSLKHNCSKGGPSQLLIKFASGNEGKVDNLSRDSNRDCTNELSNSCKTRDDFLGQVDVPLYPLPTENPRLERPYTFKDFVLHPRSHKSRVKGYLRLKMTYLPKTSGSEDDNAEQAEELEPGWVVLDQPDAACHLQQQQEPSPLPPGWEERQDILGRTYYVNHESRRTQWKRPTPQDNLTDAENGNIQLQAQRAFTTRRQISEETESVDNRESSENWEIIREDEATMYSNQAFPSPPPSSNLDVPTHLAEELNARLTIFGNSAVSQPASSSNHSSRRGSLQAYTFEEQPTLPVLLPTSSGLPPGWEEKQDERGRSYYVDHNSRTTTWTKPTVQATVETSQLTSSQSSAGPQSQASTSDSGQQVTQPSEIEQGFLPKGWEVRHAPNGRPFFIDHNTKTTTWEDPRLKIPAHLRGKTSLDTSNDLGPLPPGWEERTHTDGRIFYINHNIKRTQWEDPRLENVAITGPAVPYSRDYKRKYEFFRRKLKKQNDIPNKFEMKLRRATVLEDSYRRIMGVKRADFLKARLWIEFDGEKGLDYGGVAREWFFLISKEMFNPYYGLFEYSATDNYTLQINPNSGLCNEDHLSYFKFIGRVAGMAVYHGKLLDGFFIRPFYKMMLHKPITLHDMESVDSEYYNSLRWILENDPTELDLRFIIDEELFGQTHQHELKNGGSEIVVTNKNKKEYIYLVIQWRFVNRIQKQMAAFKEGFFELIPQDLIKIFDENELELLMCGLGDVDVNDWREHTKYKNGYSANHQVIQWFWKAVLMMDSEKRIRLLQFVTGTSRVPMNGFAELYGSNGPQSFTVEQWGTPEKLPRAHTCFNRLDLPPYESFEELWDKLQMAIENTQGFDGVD
UniProt P30414: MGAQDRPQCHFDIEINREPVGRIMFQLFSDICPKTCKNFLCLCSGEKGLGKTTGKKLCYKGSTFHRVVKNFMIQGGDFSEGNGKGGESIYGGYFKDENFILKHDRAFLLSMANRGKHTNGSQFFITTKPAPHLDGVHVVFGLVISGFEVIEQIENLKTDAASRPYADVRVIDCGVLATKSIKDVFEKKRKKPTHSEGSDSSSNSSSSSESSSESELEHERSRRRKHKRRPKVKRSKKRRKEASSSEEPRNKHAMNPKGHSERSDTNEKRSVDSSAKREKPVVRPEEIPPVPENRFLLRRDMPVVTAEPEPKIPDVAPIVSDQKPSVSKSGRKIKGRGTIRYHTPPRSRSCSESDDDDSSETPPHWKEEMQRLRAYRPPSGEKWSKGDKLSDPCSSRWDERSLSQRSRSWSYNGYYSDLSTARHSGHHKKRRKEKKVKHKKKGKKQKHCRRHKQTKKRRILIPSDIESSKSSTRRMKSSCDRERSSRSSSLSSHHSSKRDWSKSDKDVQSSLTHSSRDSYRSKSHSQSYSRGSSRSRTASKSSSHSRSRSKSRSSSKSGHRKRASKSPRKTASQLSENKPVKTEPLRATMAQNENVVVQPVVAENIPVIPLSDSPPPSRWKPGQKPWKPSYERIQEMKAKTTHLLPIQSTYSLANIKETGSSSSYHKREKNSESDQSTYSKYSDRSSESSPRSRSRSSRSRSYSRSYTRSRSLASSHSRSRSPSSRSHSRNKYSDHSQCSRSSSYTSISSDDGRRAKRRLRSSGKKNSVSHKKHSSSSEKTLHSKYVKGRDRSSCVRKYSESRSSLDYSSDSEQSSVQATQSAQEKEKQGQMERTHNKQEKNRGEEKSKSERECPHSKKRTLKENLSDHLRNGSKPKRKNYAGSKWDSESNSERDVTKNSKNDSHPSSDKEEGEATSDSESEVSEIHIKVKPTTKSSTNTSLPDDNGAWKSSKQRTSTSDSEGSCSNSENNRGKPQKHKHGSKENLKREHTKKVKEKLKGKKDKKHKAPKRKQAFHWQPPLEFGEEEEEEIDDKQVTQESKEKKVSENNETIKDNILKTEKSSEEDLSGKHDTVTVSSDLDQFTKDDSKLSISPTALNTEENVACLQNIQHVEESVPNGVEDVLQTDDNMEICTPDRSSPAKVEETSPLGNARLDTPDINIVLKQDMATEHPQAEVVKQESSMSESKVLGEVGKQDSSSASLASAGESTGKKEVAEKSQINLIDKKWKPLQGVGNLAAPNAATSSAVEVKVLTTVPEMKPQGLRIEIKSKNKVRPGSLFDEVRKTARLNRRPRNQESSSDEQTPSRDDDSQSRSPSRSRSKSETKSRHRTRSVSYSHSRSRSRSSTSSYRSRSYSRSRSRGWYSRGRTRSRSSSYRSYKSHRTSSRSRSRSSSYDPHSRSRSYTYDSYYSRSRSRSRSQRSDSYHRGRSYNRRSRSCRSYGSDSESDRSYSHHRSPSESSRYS
UniProt O00567: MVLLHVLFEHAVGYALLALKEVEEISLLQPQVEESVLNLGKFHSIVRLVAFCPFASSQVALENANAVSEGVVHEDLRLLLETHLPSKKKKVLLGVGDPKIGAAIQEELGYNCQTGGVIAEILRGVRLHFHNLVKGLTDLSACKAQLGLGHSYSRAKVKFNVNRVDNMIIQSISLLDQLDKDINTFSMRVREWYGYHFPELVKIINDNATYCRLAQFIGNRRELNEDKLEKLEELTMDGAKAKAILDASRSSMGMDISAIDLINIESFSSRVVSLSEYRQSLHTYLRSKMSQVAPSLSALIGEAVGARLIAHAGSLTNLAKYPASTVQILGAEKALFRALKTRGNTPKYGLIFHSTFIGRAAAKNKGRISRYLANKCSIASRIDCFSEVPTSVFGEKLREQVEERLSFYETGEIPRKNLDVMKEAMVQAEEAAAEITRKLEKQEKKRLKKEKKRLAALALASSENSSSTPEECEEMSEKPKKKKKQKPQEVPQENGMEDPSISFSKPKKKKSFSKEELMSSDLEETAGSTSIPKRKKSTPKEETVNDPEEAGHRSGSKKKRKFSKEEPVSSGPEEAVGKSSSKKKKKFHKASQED

Target	dose-dependent thermal stabilisation call
MTIF3 (UniProt Q9H2K0)	inactive: 0
ND1 (UniProt P03886)	inactive: 0
MTMR9 (UniProt Q96QG7)	inactive: 0
MTR (UniProt Q99707)	inactive: 0
MYST1 (UniProt Q9H7Z6)	inactive: 0
NDUFS8 (UniProt O00217)	inactive: 0
MTMR1 (UniProt Q13613)	inactive: 0
NEDD4 (UniProt P46934)	inactive: 0
NKTR (UniProt P30414)	inactive: 0
NOL5A (UniProt O00567)	inactive: 0

From the supplement of paper PMC7666118
